Reference: patent US8759300
No constants are given. Whether binding was seen depends on the method and setting. Binding calls can cover weak binding; strength is not graded here.

Columns and labels:
[1] = target: transforming growth factor-β1 (TGF-β1) (human); experiment: peptide binding to the GF
[2] = target: platelet-derived growth factor-BB (PDGF-BB) (human); experiment: peptide binding to PDGF-BB

Binder | binding [1] | binding [2]
QPSHISKYILRWRPKNSVGRWKEAT [peptide 1 (FN634-658) …] | binds | binds
QLISIQQYGHQEVTRFDFTTTSTST [peptide 2 (FN680-704) …] | binds | binds
NGQTPIQRTIKPDVRSYTITGLQPGT [peptide 3 …] | binds | binds
QPSVGQQMIFEEHGFRRTTPPTTAT [peptide 4 (FN2043-2067) …] | binds | binds
